Each structure is given as a SMILES string. Some of the results follow. Single values are uncertain here, since repeats match poorly.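 A first-round screen of about ten thousand compounds sought those raising reporter output, using human embryonic kidney cells briefly transfected with a plasmid carrying a Renilla luciferase gene driven by the HSV-TK promoter.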

This test has as its system HEK 293FT. Put plainly: log relative Renilla luciferase luminescence (reporter expression vs reference, reference not stated) (log (base not stated)); higher = higher recombinant reporter expression. The following applies: 10 µM; time after transfection 48 h. The procedure: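 HEK 293FT cells transiently transfected with pRL-TK (Renilla luciferase) were treated with compounds at 10 uM and luminescence was read about 42 h later. Values are log relative Renilla luminescence (log base and reference not stated). Single-pass screen; 2080 natural products library.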
Turning to `O=C1C[C@@H](c2ccccc2)Oc2cc(O)cc(O)c21` [Pinocembrin], the log is -0.279.

For the molecule `COC[C@@H](Cc1ccc(OC)c(OC)c1)[C@@H](COC)Cc1cc(OC)c2c(c1)OCO2` [Niranthin], the log was determined as 0.0164.

`CC1=CC(=O)CC(C)(C)[C@H]1CC[C@@H](C)O[C@@H]1O[C@H](CO)[C@@H](O)[C@H](O)[C@H]1O` [Blumenol C glucoside]: the log is -0.327.

With `COc1ccc2c3c4n(c2c1)CC(C)(C)C4=NCC3` [Harmalidine], the log is -0.0437.

`C=C(C)[C@@H](O)[C@@H](O)c1c(OC)ccc2ccc(=O)oc12` [Murrangatin]: the log was -0.247.

With `CCCCCCCCCCCCCCCCCCCCCCCCCc1cc(O)cc(O)c1` [5-Pentacosylresorcinol], the log was determined as 0.199.

Consider `O=C(O)CCCCCCCCC(=O)O` [Decanedioic acid], for which the log was 0.245.

With `O=c1ccc2c(O[C@@H]3O[C@H](CO)[C@@H](O)[C@H](O)[C@H]3O)c3ccoc3c(O)c2o1` [8-Hydroxy-5-O-beta-D-glucopyranosylpsoralen], the log was -0.104.

With `O=c1cc(-c2ccc(O)cc2)oc2cccc(O)c12` [4',5-Dihydroxyflavone], the log is -0.131.

Take `CC(C)CC[C@@H](O)[C@](C)(O)[C@H]1CC[C@@]2(O)C3=CC(=O)[C@@H]4C[C@@H](O)[C@@H](O)C[C@]4(C)[C@H]3CC[C@]12C` [Ponasterone A]: the log was determined as 0.0623.

Regarding `COC(=O)C1CC23C(=O)C4CC5N(CC4C)CC(CCC4=C2C1CC4)C53C` (stereo not given) [Daphniyunnine A], the log is 0.035.

In the case of `C[C@@H]1O[C@@H](O[C@@H]2[C@@H](O)[C@H](OCCc3ccc(O)c(O)c3)O[C@H](CO)[C@H]2OC(=O)/C=C/c2ccc(O)c(O)c2)[C@H](O)[C@H](O)[C@H]1O` [Acteoside], the log was -0.203.

Consider `COC(=O)C1=CO[C@@H](C)[C@H]2C[N+]3([O-])CCc4c([nH]c5ccccc45)[C@@H]3C[C@H]12` (stereo not given in full) [4,R-ajmalicine N-oxide], for which the log is -0.174.

In the case of `C[C@@H]1[C@H]2COC(=O)[C@H](CO)[C@H]2C[C@@H]1O` [4-Epialyxialactone], the log was -0.0445.

On to `COc1c(O)c(OC)c2oc(-c3ccccc3)cc(=O)c2c1O` [5,7-Dihydroxy-6,8-dimethoxyflavone], for which the log was -0.0651.

Regarding `C=C(C)[C@@H]1CC[C@]2(C)CC[C@]3(C)[C@H](CC[C@@H]4[C@@]5(C)CCC(=O)C(C)(C)[C@@H]5CC[C@]43C)[C@@H]12` [Lupenone], the log was -0.0329.

Turning to `C=C[C@H]1[C@H](O[C@@H]2O[C@H](CO)[C@@H](O)[C@H](O)[C@H]2O)OC=C2C(=O)OCC[C@]21O` [Swertiamarin], the log is -0.0564.

`CC1(C)CC(=O)C(C)(C)CC1=O` [2,2,5,5-Tetramethylcyclohexane-1,4-dione]: the log was -0.0581.

For `COc1ccc(C2Oc3cc(OC)cc(OC)c3C(=O)C2O)cc1` (stereo not given) [3-Hydroxy-4',5,7-trimethoxyflavanone], the log is -0.405.

Regarding `Oc1ccc2c(c1)CN1CC[C@H](O)C1=N2` [Vasicinol], the log is -0.123.

As to `COc1cc(O)cc(O)c1C(C)=O` [2,4-Dihydroxy-6-methoxyacetophenone], the log was found to be 0.0981.

Take `O=C1c2cccc(O)c2C(=O)c2c(O)cccc21` [Dantron]: the log is -0.273.

Take `CC#Cc1ccc(-c2ccc(C(O)CO)s2)s1` (stereo not given) [Arctinol B]: the log was -0.238.

For `COc1c(O)cc(O)c2c(=O)cc(-c3ccccc3)oc12` [Wogonin], the log stood at 0.012.

On to `O=C(O)C(O)C(O)c1ccc(O)cc1` (stereo not given) [2,3-dihydroxy-3-(4-hydroxyphenyl)propanoic acid], for which the log is -0.537.

In the case of `C[C@@H]1CC[C@@]2(C)C(C(=O)O)=CCC[C@@H]2[C@@]1(C)CCC1=CCNC1=O` [Echinophyllin C], the log was -0.191.

`CC[C@H](CC[C@@H](C)[C@H]1CC[C@H]2[C@@H]3CCC4=CC(=O)CC[C@]4(C)[C@H]3CC[C@]12C)C(C)C` [Sitostenone]: the log is -0.228.

Take `O=C(N[C@@H](Cc1ccccc1)C(=O)N[C@H](CO)Cc1ccccc1)c1ccccc1` [Aurantiamide]: the log was -0.053.

In the case of `CC(C)(O)[C@@H]1Cc2c(cc3oc(CO[C@@H]4O[C@H](CO)[C@@H](O)[C@H](O)[C@H]4O)cc(=O)c3c2O)O1` [prim-O-Glucosylangelicain], the log turned out to be 0.0208.

Regarding `CC=Cc1ccc2c(c1)C(C)C(c1ccc(OC(C)=O)cc1)O2` (single isomer, unassigned; (+)) [(+)-Conocarpan acetate], the log was -0.181.

For the molecule `COc1ccc(-c2oc3cc(OC)c(OC)c(O)c3c(=O)c2OC)cc1OC` [Artemetin], the log was -0.348.

Take `COc1ccc(CCCO)cc1O` [3-Hydroxy-4-methoxy-benzenepropanol]: the log was -0.43.

Consider `Cc1cccc2c1ccc1c3occ(C)c3oc(=O)c21` [Tanshinlactone], for which the log was -0.166.

Regarding `CC1(C)O[C@H]2CC(=O)OC[C@]23[C@H]2CC[C@@]4(C)[C@@H](c5ccoc5)OC(=O)[C@H]5O[C@]54[C@]2(C)[C@H](O)C[C@@H]13` [Limonol], the log is -0.125.

As for `COC(=O)c1nccc2c1[nH]c1ccccc12` [1-Methoxycarbonyl-beta-carboline], the log is -0.0633.

As for `Cc1cc2c(cc1O)[C@@](C)(O)C(=O)C=C2C(C)C` [Lacinilene C], the log was determined as 0.455.

In the case of `C[C@@H]1CC[C@]2(C(=O)O)CC[C@]3(C)C(=CC[C@@H]4[C@@]5(C)C[C@@H](O)[C@@H](O)C(C)(C)[C@@H]5CC[C@]43C)[C@@H]2[C@]1(C)O` [Euscaphic acid], the log was -0.341.

As for `CC1(C)CC[C@]2(C(=O)O)CC[C@]3(C)C(=CC[C@@H]4[C@@]5(C)CC[C@H](O)C(C)(C)[C@@H]5CC[C@]43C)[C@@H]2C1` [Oleanolic acid], the log is 0.452.

For `CC#Cc1ccc(C#CC#CC(O)CO)s1` (stereo not given) [Echinoynethiophene A], the log is 0.157.

On to `COc1cc(O)cc(/C=C/c2ccccc2)c1` [(E)-3-Hydroxy-5-methoxystilbene], for which the log stood at 0.111.

These data come from the supplement of paper PMC7024190.
